The results in this text go back to paper PMC7819943, “Rice protein-binding microarrays: a tool to detect cis-acting elements near promoter regions in rice”.

The chains behind the UniProt entries cited, without tags or fusion partners.
UniProt Q0JBA9, entry or part of it: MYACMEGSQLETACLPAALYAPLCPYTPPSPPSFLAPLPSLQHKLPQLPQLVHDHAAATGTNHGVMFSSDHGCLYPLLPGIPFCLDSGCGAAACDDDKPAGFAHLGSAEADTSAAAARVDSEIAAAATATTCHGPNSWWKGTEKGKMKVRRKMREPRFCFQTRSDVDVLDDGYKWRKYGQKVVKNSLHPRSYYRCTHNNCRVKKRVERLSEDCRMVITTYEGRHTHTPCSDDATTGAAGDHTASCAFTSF

The list shows a part of the results.

In the test the target is OsWRKY34 (Oryza sativa, UniProt Q0JBA9 1-250). The experiment in a line: protein-binding microarray (RPBM); PBS, 2% BSA, 51.3 ng/ul salmon testes DNA, 50 uM zinc acetate, 200 nM TF, 25 C, 1 h; high values mean tight binding. As to conditions: protein: recombinant; tags: N-terminal polyhistidine and DsRed monomer fusion (pET32a); label: CyDye5-dUTP incorporated in the synthesized complementary strand; 3' TTTTT single-stranded linker to array surface; dsDNA, one strand shown. In short, it runs like this:
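The binding signal is fluorescence intensity per feature, in arbitrary units, read on an Axon 4000B scanner. Polyhistidine- and DsRed-tagged transcription factors (N-terminal fusions) from E. coli BL21-CodonPlus were purified on Ni–NTA and applied at 200 nM for 1 h at 25 °C to a double-stranded, BSA-blocked custom Agilent array in buffer with 50 µM zinc acetate.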
Take “CCATCTAAAACAGTTCGCGTGCAGTCCAGCTCCAGCCCAACGGAGTCACCTAGTGCAG”: the binding signal was 10200 fluorescence intensity (a.u.).
Then “AAACGAACCTATACTTAACTTTCTCTATTTTGAAACCCTACGGAGTCACCTAGTGCAG”, with 9220 fluorescence intensity (a.u.).
The value for “GGGGTTCTTGGTCAAGCTATGGTTGTCCTGGCTGTGAATTCGGAGTCACCTAGTGCAG” was 13400 fluorescence intensity (a.u.); that for “AACCACTCATCCCACCTTGCTGCTACGTGGCCAACCAACTCGGAGTCACCTAGTGCAG” was 13400 fluorescence intensity (a.u.).
For “TGTCGCCACTAGCCGCCGCCAACCACCAACCCGTCATCGACGGAGTCACCTAGTGCAG”, the binding signal was 8930 fluorescence intensity (a.u.).
As for “ACCGGTTTCGTGGGGCTGGAATACGAGGTTGATCTCGTTACGGAGTCACCTAGTGCAG”, the binding signal is 8020 fluorescence intensity (a.u.).
The value for “GGTCCAATCAAACGGTCATTCTTGTGTTTTCCCTGTGTTTCGGAGTCACCTAGTGCAG” was 14400 fluorescence intensity (a.u.); that for “CCTTTTGAGTTTTGGCAGATTGTTGCAATTGTGGTATTCTCGGAGTCACCTAGTGCAG” was 10100 fluorescence intensity (a.u.); that for “TCCTGTAGCAATTTTTTTTGGTTTTTTTTCGACTATACGACGGAGTCACCTAGTGCAG” was 8470 fluorescence intensity (a.u.).
The value for “AGGATCTTTATACACATAGCTACCACAATGGCTACAATTACGGAGTCACCTAGTGCAG” was 8130 fluorescence intensity (a.u.); that for “TCGATTCCCTCCGCTCCGGTGACCTCCTCGTCGATTCTTTCGGAGTCACCTAGTGCAG” was 10200 fluorescence intensity (a.u.); that for “CATGATCATCATGAATCAATCACCCGCCGTCCGTTGCATCCGGAGTCACCTAGTGCAG” was 8140 fluorescence intensity (a.u.).
Then “CCTGCTCCTTGTGTTCCTCTCTCCTCTCCTCTCCTCCGCGCGGAGTCACCTAGTGCAG”, with 9400 fluorescence intensity (a.u.).
“ACTATTCACCGATTTACTGTAGCGATCGATCTTGTTCGTTCGGAGTCACCTAGTGCAG”: the binding signal was 8830 fluorescence intensity (a.u.).
Then “GCTTCAACCTCTTGGTAACTTTCCTTTGAGTCTATCTCTCCGGAGTCACCTAGTGCAG”, with 11500 fluorescence intensity (a.u.); and “ATTTCTCTTTTTGAATTCTTCTACATGTTTTCCTTCGCGCCGGAGTCACCTAGTGCAG”, with 9440 fluorescence intensity (a.u.); and “CCATTGCAATCCTGTCGTCTATTTGTATTTGTTTTTTGTTCGGAGTCACCTAGTGCAG”, with 11100 fluorescence intensity (a.u.).
Then “GGTGGGAGAGATAAAACCAAGACTCTAATATTCTCATGTTCGGAGTCACCTAGTGCAG”, with 8040 fluorescence intensity (a.u.).
Turning to “AAGAGAAATATCTGGTTGCTCCAGCTTGGCATCGTTGACCCGGAGTCACCTAGTGCAG”, the binding signal was 9780 fluorescence intensity (a.u.).
The value for “GACAGCTTAATTTACTCTGTTGTTTCCCATAGTCAAAAGTCGGAGTCACCTAGTGCAG” was 8040 fluorescence intensity (a.u.); that for “AAACAAATTTACCACTACCATCCCAAGAAGCTGCTACTACCGGAGTCACCTAGTGCAG” was 8680 fluorescence intensity (a.u.); that for “CGCTTATATAAACTCATTCCTAACTCGTTCTCATCCCAATCGGAGTCACCTAGTGCAG” was 8880 fluorescence intensity (a.u.).
Turning to “AAAATGGTATTTGATGTATTTTAATTATATGTTTGTTTTTCGGAGTCACCTAGTGCAG”, the binding signal was 8830 fluorescence intensity (a.u.).
The value for “CACCATGGTCTTTACTGTAGTAGTTACTAATCTATGTATACGGAGTCACCTAGTGCAG” was 8220 fluorescence intensity (a.u.); that for “CACCGCACGCGAGCCGCCTCACCTCGCGATCTCCCTCCTCCGGAGTCACCTAGTGCAG” was 9360 fluorescence intensity (a.u.); that for “ACCACCACCACCACGGCCACGCGACCCAAAACCAAAGCGACGGAGTCACCTAGTGCAG” was 8150 fluorescence intensity (a.u.).
Then “CTCTACTTCTAATATTCCTTATTTTTTTAATTCCGAATTTCGGAGTCACCTAGTGCAG”, with 8800 fluorescence intensity (a.u.); and “GTTGTTTGGGCTTTGGGCCGGATCATGATATTGCAGTTATCGGAGTCACCTAGTGCAG”, with 8550 fluorescence intensity (a.u.).
Then “ACCCTAAACTGCAAAACCAGATATGTCGACCCTCGAATTACGGAGTCACCTAGTGCAG”, with 8060 fluorescence intensity (a.u.); and “GACGGGTGTTTCTAGGGTTAAGGTTAGGTTTTTTTTTTGACGGAGTCACCTAGTGCAG”, with 9680 fluorescence intensity (a.u.); and “CCTTGTTTGCTCGGTTTTTGTAAGTTGAGGGACGGGTCATCGGAGTCACCTAGTGCAG”, with 18700 fluorescence intensity (a.u.).
In the case of “GCCCTCGCCCGCCGACGTCGCCGCCCCTGCCCACAGATTGCGGAGTCACCTAGTGCAG”, the binding signal was 8180 fluorescence intensity (a.u.).
In the case of “ATGCCGTCGCAATCTGATTTCGTTGTTACTAAAGCTCTCACGGAGTCACCTAGTGCAG”, the binding signal was 8110 fluorescence intensity (a.u.).
Then “GCTGATGTGTTTGTGCAGCTGGATTGGCTTTTCGCTAGAGCGGAGTCACCTAGTGCAG”, with 9000 fluorescence intensity (a.u.); and “TTCGTACACATTTGGTCGCTGTAATTTTATTCCTTAAATGCGGAGTCACCTAGTGCAG”, with 9370 fluorescence intensity (a.u.); and “TTTGAGTCTATCTCTCTCATCCAAGTCCTGTGTTTTTCATCGGAGTCACCTAGTGCAG”, with 8670 fluorescence intensity (a.u.).
Take “TGATTGTTTACTGCTTTCAAATTAACAATTCAATGGTTCTCGGAGTCACCTAGTGCAG”: the binding signal was 8290 fluorescence intensity (a.u.).
Take “CCTGCCGCTTGCCGCTCCGCTGTTCCCATCCCGCTCCCACCGGAGTCACCTAGTGCAG”: the binding signal is 8130 fluorescence intensity (a.u.).
For “ATTTTAGTTTCTTTACTGTAGTTTCTTTTGCTACCTTTTTCGGAGTCACCTAGTGCAG”, the binding signal is 13000 fluorescence intensity (a.u.).
The value for “GGATTTGCTTGATGGATCCGGAGTCATATAACATGTTTGCCGGAGTCACCTAGTGCAG” was 8110 fluorescence intensity (a.u.); that for “GAGTCTTGATAAGTGCACCCATCTCATCTCATCTCCTACTCGGAGTCACCTAGTGCAG” was 8140 fluorescence intensity (a.u.).
The value for “ATTCGTCTCGCGGTTTACTGTCGGATTCTGTAATTAGTTTCGGAGTCACCTAGTGCAG” was 12900 fluorescence intensity (a.u.).
